# Primary screen of a compound library

The chains behind the UniProt entries cited, without tags or fusion partners. Residues count along the entry.
UniProt P9WFT3, whole entry: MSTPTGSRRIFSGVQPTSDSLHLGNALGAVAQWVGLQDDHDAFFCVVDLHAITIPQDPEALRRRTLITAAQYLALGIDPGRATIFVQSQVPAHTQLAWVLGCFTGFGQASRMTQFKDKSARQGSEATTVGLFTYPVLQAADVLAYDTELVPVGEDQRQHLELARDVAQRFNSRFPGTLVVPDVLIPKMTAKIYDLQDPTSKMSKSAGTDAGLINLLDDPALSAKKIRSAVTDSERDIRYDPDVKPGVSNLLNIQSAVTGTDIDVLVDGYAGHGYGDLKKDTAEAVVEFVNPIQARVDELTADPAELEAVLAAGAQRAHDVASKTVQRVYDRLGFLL
UniProt P9WPC5, whole entry: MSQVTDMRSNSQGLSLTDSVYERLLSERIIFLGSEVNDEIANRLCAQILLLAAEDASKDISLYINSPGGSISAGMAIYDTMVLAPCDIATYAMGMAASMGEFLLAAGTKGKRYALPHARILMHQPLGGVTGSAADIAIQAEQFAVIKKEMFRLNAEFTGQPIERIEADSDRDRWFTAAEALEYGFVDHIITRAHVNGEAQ
UniProt P9WPC3, whole entry partner: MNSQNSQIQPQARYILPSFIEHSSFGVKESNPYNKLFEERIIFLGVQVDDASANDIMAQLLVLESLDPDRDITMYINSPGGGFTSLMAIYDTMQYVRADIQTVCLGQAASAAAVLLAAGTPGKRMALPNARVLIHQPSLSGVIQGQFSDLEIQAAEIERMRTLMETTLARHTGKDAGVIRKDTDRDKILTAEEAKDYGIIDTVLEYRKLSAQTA
UniProt Q8IDJ8, 1-583: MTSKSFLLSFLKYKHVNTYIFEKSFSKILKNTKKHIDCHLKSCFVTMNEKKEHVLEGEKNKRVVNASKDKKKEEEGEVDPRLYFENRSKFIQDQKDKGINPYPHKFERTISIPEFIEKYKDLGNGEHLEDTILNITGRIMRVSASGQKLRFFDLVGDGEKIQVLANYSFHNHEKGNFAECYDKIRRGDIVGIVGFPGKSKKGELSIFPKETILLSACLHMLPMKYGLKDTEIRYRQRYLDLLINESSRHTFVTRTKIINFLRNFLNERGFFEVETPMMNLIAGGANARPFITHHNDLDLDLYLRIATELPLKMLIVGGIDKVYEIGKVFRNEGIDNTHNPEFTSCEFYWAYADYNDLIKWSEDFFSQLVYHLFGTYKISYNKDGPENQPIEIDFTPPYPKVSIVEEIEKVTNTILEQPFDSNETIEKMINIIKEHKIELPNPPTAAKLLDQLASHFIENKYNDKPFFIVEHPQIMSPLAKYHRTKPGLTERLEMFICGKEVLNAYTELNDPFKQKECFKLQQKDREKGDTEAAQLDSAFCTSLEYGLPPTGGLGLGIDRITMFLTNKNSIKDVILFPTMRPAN
UniProt P9WNZ1, whole entry: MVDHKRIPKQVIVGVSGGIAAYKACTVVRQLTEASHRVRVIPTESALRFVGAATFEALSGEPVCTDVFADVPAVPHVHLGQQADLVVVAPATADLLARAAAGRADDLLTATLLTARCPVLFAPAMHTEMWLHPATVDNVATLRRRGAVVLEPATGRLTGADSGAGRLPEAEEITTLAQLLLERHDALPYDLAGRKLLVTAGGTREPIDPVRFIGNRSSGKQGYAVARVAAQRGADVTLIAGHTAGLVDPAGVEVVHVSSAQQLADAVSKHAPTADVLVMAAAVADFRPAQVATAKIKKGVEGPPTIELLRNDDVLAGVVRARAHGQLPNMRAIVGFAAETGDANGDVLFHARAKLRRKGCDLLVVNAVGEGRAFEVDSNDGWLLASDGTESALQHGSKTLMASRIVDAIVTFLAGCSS

Measurements from “University of Dundee, Small-Polar-MMV Screening Library” (2021), ChEMBL document CHEMBL3988442.

The filed quantity is “Percent Effect” (%). How 0% and 100% were set is not recorded. Most values in the screen are low, and negative values occur. This is an unselected part of the compounds tested. Two or more numbers in one place are separate tests of the same structure; such repeats can differ widely. A dash means the value is not listed here; it may have been measured.

MtTrpRS: 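Enzyme assay of tryptophanyl-tRNA synthetase; the read-out is not stated. Target: Tryptophan-tRNA ligase, Mycobacterium tuberculosis (UniProt P9WFT3). Concentration: 10 µM. Higher most likely means stronger inhibition; the record gives no direction and few retests gave an IC50. Size under these conditions: about 65,000 compounds, about 64 of them at 50% or above in at least one test.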
ClpP1P2: 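ClpP1P2, Mycobacterium tuberculosis (UniProt P9WPC5 and UniProt P9WPC3). Protease assay of ClpP1P2, read by the AMC dye that it sets free. Compounds at 50 µM. Higher reads as stronger inhibition, judged from the few compounds that gave an IC50. Most other retested compounds had strongly negative values. Of about 69,000 compounds tested this way, about 10 (0.015%) reached 50% or more in at least one test.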
Leishmania in macrophages: 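Cell assay of Leishmania donovani living inside macrophages; the read-out is not stated. Concentration: 30 µM. The record gives no direction; compounds that gave an IC50 in retests scored well above the rest, so higher reads as stronger inhibition. About 69,000 compounds were tested under these conditions; 1.5% (about 1,000) showed 50% or more at least once.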
PfKRS1: 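Enzyme assay of the cytosolic lysyl-tRNA synthetase in 384-well plates, read by luminescence. Target: Lysine-tRNA ligase, Plasmodium falciparum 3D7 (UniProt Q8IDJ8). Tested at 30 µM. Higher reads as stronger inhibition, judged from the few compounds that gave an IC50. About 69,000 compounds were tested under these conditions; 0.071% (about 49) showed 50% or more at least once.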
CoaBC: 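Coenzyme A biosynthesis protein CoaBC, Mycobacterium tuberculosis (UniProt P9WNZ1). Enzyme assay of CoaBC with a phosphate dye (Biomol Green) read at 650 nm. Compounds at 30 µM. Higher reads as stronger inhibition, judged from the few compounds that gave an IC50. Most strong results did not repeat in a second test. Of about 67,000 compounds tested this way, about 40 (0.06%) reached 50% or more in at least one test.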

| SMILES | MtTrpRS | ClpP1P2 | Leishmania in macrophages | PfKRS1 | CoaBC |
|---|---|---|---|---|---|
| `[H][C@@]12C[C@H](C(=O)N3CCCC3)[C@@]([H])(CN(S(=O)(=O)CCC)C1)O2` | - | - | 4.452% | - | - |
| `Cc1nc(CN2CCCC(CCc3ccccc3C(F)(F)F)C2)no1` (stereo unspecified) | -3.662% | -10.23% | -4.383% | 13.54% | 3.672% |
| `Cc1sc2nc(CCN)nc(N(CCN(C)C)CC3CCCO3)c2c1C` (stereo unspecified) | -2.261% | -6.862% | 38.72% | 5.075% | -38.43% |
| `CCCS(=O)(=O)N1CCC(Nc2c(F)cc(C#N)cc2F)CC1` | -3.008% | 3.168% | 17.06% | 7.883% | 4.912% |
| `CCOC(=O)C1(Cc2ccccc2)CCCN(Cc2nccn2CC)C1` (stereo unspecified) | 1.257% | -16.02% | 51.2% | 2.229% | 11.16% |
| `Cc1csc(C2CCCCN2C(=O)c2cc(C(C)C)[nH]n2)n1` (stereo unspecified) | -2.466% | -12.69% | -52.74% | -1.452% | -0.2389% |
| `Cc1ncc(CN2CCCC2c2ccc(C(=O)NCc3ccoc3)s2)s1` (stereo unspecified) | 2.918% | -8.96% | 10.09% | 0.9396% | 12.14% |
| `COc1c(CNC2CCSc3ccc(F)cc32)c(C)nn1C.Cl` (stereo unspecified) | - | - | 60.68% | - | - |
| `Cc1ccsc1-c1nccn1CCS(C)(=O)=O` | 14.24% | -3.533% | 1.881% | -3.207% | 11.34% |
| `Cc1ccc(N2CCC3(CCCN(C(=O)c4cccnc4)C3)C2)nn1.O=C(O)C(F)(F)F` (stereo unspecified) | - | - | -4.868% | - | - |
| `N#CCSCCCN1CCCN(C(=O)c2ccccc2)CC1` | -3.207% | -11.7% | 8.915% | -2.024% | -5.806% |
| `O=C(NCc1cc(Cl)ccn1)NCc1ccco1` | -0.5093% | -5.19% | 9.232% | 1.602% | 0.9756% |
| `O=C(O)C(F)(F)F.O=C(O)C(F)(F)F.[H][C@]12CCN(Cc3nccs3)[C@@]1([H])CC[C@H](COCc1cccnc1)O2` | - | - | 98.87% | - | - |
| `[H][C@@]12CCC(=O)N(CCCOC)[C@]1([H])CCN(c1ccnc3ccccc13)C2` | - | - | -7.609% | - | - |
| `CC(C)C1CN(C(=O)c2cn3cc(Cl)cnc3n2)CCCN1CC1CC1` (stereo unspecified) | 1.652% | -23.29% | 8.589% | 6.032% | 26.76% & 5.291% |
| `O=C(Nc1cccc(N2CCOCC2)c1)N[C@H](CO)c1ccccc1` | 2.78% | -11% | 10.05% | 9.373% | 13.65% |
| `COc1ccccc1OCCN1CCCC(c2noc(C3CC3)n2)C1` (stereo unspecified) | -3.552% | -22.91% | 7.109% | -1.802% | -17.41% |
| `[H][C@]12CC=C(CN3CCCn4nc(CCC(=O)O)cc4C3)[C@]([H])(C1)C2(C)C` | - | - | 15.96% | - | - |
| `Cc1ccc(CN2CCn3cc(CN4CCN(C)CC4)nc3C2)cc1` | - | 4.734% | - | 1.218% | 7.054% |
| `CCOCC1CN(Cc2ccncc2)Cc2nn(C)cc21` (stereo unspecified) | 1.918% | 4.491% | - | 2.554% | -7.143% |
| `Cc1ccc(CN2Cc3ccccc3O[C@]3(CC[C@H](CO)CC3)C2)o1` | - | 25.66% | - | 0.874% | 1.211% |
| `Cc1noc(-c2ccc(N(C)Cc3nccs3)nc2)n1` | 0.4112% | -17.82% | 11.4% | 0.6467% | 2.822% |
| `CCn1ncc2c1CN(C(=O)Cc1ccccn1)CC2COC.O=C(O)C(F)(F)F.O=C(O)C(F)(F)F` (stereo unspecified) | - | - | -17.59% | - | - |
| `Cc1cc(N(C)C)nc(C2(C)CCCN2C(=O)c2cncnc2C)n1` (stereo unspecified) | - | -7.333% | 25.29% | 1.833% | 5.824% |
| `CC(C)NC1CCc2c(ccc(=O)n2CC2CC2)C1.O=C(O)C(F)(F)F` (stereo unspecified) | - | - | -4.449% | - | - |
| `COc1ccc(CN2CC[C@H]3O[C@@H](C(=O)NCC4CC4)CC[C@H]32)cc1` | -5.898% | -8.573% | - | 1.945% | -22.22% |
| `COc1c(C)cnc(CN(C)C(=O)c2ccccc2O)c1C` | 1.871% | -0.6892% | -12.82% | 20.32% | -8.423% |
| `Cc1cnc(CC2COCCN(C(=O)CN3CCOCC3)C2)cn1` (stereo unspecified) | -6.512% | -22.09% | 13.55% | 1.073% | 12.15% |
| `CC(=O)N1CCCC2(CCN(c3nncs3)C2)C1` (stereo unspecified) | -10.22% | -0.9154% | 21.18% | 5.506% | -0.9852% |
| `O=C(c1cccc2c1OCO2)N1CCCCC1Cn1cccn1` (stereo unspecified) | -2.848% | 5.867% | 10.28% | 14.78% | -0.216% |
| `CC1CN(CC(=O)Nc2nncs2)CCN1c1nccs1` (stereo unspecified) | 2.818% | 8.585% | 5.617% | 1.918% | 4.722% |
| `Cc1nn(C)c(N2CCOCC2)c1CNCc1ccc(C(C)O)cc1` (stereo unspecified) | -2.759% | -5.511% | 6.891% | 1.165% | 4.7% |
| `Cn1cncc1CN1CCOC(Cc2ccccc2)C1` (stereo unspecified) | -5.933% | -1.597% | 11.03% | 1.888% | -15.83% |
| `CC(C)NC(=O)C1CCN(C(C)C(=O)N2CCc3sccc3C2)CC1` (stereo unspecified) | -1.511% | -0.6811% | 32.82% | 1.346% | 11.45% |
| `CC(C)CN1CCC(NC(=O)c2ccc(Cl)cc2Cl)CC1` | 1.4% | -20.1% | 2.485% | 9.343% | 1.786% |
| `O=C(Cc1cccs1)NS(=O)(=O)c1cccc2cnccc12` | -1.542% | -9.601% | -28.46% | 0.6891% | 7.042% |

For reference, 4 entries once more:

* Cc1ccc(CN2Cc3ccccc3O[C@]3(CC[C@H](CO)CC3)C2)o1 : ClpP1P2: 25.66%; PfKRS1: 0.874%; CoaBC: 1.211%
* Cc1ccc(CN2CCn3cc(CN4CCN(C)CC4)nc3C2)cc1 : ClpP1P2: 4.734%; PfKRS1: 1.218%; CoaBC: 7.054%
* CCn1ncc2c1CN(C(=O)Cc1ccccn1)CC2COC.O=C(O)C(F)(F)F.O=C(O)C(F)(F)F (stereo unspecified) : Leishmania in macrophages: -17.59%
* Cn1cncc1CN1CCOC(Cc2ccccc2)C1 (stereo unspecified) : MtTrpRS: -5.933%; ClpP1P2: -1.597%; Leishmania in macrophages: 11.03%; PfKRS1: 1.888%; CoaBC: -15.83%